In the supplement of paper PMC12067093, “Discovery and optimisation of a covalent ligand for TRIM25 and its application to targeted protein ubiquitination” (Chemical Science, 2025):
The other results are listed elsewhere or left out.

The chains behind the UniProt entries cited, without tags or fusion partners. Where a name states a change or a piece, a line headed by the entry shows the natural chain unless it says otherwise.
UniProt Q9Y678: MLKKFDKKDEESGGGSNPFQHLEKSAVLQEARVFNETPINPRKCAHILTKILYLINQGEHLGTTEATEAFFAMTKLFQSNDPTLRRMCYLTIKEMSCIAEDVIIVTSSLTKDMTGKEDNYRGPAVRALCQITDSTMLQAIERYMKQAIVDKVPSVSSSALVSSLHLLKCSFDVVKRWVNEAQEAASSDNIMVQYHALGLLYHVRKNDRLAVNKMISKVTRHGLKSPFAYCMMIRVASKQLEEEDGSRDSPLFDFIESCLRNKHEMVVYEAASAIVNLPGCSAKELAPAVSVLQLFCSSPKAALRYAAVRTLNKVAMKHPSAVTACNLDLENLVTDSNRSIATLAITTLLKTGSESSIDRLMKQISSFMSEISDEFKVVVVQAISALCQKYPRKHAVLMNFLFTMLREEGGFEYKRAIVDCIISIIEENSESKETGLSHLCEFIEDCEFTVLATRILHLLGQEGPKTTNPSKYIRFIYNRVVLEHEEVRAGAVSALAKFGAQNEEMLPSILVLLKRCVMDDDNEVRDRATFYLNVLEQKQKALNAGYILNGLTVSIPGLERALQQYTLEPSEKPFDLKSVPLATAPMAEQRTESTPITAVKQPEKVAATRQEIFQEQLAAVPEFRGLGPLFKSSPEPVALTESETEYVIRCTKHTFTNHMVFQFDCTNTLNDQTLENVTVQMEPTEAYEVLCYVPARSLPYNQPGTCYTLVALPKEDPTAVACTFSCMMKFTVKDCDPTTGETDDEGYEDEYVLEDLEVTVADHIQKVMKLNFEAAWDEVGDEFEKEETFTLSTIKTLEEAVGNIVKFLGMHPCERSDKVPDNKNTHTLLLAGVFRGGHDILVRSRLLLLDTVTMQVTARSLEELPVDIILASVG
UniProt P49747: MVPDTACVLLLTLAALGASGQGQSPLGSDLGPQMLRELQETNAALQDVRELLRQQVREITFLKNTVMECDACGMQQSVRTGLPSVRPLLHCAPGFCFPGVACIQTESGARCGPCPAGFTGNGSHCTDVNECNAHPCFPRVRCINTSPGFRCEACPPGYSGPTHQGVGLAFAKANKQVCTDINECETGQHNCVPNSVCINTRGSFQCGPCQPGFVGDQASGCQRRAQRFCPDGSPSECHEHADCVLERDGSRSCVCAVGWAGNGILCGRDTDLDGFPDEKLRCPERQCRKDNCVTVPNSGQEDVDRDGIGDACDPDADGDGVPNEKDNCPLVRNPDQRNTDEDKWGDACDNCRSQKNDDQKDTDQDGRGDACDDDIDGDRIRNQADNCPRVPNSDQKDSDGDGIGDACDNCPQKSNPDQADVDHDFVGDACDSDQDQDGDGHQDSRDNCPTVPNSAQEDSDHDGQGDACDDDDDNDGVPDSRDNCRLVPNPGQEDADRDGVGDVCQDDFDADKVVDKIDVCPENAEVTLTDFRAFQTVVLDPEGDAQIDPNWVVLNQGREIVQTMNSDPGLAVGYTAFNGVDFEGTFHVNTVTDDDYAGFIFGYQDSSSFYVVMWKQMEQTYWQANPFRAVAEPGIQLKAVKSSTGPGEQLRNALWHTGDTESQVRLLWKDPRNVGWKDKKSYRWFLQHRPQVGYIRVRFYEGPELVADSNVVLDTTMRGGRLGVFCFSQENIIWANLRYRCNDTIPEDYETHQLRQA
UniProt Q9Y2B0: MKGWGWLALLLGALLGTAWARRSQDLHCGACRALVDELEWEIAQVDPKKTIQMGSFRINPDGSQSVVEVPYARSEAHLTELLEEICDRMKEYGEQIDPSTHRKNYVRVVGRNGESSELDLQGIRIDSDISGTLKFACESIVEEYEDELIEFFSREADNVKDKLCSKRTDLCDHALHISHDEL
UniProt Q7Z7A1: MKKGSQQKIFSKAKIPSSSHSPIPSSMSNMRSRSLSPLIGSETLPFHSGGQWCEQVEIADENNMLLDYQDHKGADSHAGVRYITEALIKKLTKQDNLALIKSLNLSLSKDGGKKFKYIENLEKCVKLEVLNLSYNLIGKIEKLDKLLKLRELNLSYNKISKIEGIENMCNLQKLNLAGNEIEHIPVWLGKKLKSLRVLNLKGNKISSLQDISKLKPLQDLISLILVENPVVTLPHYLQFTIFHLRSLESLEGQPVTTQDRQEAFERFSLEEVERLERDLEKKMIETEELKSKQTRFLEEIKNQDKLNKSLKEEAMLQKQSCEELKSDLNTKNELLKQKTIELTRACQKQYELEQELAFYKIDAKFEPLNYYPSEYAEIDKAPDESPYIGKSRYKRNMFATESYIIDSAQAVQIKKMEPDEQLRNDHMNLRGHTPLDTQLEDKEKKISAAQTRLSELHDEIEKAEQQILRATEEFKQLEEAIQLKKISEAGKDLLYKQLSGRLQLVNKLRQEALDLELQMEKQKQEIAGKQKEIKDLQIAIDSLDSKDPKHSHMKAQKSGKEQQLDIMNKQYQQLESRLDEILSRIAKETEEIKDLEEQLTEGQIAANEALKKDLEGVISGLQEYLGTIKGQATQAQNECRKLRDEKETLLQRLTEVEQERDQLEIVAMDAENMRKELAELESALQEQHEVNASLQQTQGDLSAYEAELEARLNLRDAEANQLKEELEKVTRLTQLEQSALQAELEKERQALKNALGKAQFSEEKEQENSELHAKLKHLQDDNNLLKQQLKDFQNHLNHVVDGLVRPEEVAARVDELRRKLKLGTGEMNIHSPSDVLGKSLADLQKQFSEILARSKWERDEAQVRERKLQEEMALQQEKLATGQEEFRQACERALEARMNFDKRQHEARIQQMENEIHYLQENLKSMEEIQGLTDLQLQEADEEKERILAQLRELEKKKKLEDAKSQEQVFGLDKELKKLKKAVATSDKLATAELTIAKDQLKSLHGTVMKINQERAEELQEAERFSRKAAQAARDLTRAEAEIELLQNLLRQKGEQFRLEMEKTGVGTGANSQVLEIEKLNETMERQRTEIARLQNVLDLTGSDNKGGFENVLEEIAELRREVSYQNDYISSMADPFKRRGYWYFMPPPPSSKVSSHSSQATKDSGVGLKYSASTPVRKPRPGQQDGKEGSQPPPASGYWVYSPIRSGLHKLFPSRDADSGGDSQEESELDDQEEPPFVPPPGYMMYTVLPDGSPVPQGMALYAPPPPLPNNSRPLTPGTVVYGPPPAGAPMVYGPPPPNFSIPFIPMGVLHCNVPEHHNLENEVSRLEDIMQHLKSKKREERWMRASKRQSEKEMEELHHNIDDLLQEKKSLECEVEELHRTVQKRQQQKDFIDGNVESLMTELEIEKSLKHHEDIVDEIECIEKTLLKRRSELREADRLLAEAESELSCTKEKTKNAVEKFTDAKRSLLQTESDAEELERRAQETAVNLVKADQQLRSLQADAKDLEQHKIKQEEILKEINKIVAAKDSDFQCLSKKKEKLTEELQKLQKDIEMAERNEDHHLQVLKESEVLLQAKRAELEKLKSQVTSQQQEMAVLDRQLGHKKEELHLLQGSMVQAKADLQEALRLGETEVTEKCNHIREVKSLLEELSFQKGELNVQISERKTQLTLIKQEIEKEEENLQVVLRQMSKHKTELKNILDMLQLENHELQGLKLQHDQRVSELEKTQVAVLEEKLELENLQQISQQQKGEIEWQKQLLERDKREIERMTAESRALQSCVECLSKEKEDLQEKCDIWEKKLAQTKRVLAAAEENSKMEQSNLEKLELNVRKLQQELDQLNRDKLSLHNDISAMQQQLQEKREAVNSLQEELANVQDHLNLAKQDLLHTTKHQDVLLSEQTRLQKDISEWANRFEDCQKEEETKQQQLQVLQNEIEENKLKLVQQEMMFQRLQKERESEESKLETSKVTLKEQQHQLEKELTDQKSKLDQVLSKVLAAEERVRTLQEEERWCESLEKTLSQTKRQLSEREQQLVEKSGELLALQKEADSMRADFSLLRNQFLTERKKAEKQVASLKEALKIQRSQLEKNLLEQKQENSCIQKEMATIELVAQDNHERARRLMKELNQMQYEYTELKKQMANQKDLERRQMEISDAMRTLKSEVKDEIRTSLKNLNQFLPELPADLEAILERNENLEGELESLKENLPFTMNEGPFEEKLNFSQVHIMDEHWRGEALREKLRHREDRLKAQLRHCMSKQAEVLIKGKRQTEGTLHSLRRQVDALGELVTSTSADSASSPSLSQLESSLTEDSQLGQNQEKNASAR
UniProt Q96MX0: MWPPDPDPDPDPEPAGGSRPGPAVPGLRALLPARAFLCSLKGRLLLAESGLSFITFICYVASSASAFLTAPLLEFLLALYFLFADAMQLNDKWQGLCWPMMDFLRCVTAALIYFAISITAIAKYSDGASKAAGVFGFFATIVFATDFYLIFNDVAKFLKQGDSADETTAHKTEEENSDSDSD
UniProt P09543: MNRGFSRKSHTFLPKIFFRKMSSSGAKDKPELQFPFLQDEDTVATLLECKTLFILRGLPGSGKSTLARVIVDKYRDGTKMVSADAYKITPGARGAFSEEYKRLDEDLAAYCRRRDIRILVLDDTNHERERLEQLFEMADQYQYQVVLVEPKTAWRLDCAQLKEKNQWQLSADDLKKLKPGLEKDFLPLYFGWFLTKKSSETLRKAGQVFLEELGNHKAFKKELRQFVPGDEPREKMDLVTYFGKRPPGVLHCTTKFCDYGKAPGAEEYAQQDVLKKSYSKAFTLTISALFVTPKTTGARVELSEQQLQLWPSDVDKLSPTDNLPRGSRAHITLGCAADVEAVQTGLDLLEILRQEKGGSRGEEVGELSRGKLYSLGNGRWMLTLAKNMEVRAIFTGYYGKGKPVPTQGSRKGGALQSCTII
UniProt Q9UBF2: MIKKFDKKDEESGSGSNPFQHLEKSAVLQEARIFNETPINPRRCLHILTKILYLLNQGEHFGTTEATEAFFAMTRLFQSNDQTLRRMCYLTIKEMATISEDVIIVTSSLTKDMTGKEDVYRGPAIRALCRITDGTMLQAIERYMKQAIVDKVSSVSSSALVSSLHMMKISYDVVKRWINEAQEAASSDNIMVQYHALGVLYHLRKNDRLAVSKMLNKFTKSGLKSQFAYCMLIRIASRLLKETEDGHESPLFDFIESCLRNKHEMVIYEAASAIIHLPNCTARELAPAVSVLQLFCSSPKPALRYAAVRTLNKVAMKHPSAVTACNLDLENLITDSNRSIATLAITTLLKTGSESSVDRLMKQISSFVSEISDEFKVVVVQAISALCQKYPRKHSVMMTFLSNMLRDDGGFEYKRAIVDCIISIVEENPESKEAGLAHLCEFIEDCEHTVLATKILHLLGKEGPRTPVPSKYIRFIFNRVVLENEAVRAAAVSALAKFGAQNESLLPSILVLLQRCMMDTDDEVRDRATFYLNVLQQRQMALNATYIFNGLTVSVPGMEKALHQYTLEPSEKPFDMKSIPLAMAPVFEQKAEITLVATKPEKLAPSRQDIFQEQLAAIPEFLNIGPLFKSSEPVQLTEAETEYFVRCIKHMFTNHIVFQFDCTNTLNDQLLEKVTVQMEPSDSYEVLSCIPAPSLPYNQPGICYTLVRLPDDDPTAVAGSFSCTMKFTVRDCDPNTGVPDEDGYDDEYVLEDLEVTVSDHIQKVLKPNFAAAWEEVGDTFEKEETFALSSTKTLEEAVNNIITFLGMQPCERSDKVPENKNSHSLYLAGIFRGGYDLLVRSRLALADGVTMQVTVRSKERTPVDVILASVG
UniProt Q7L5N1: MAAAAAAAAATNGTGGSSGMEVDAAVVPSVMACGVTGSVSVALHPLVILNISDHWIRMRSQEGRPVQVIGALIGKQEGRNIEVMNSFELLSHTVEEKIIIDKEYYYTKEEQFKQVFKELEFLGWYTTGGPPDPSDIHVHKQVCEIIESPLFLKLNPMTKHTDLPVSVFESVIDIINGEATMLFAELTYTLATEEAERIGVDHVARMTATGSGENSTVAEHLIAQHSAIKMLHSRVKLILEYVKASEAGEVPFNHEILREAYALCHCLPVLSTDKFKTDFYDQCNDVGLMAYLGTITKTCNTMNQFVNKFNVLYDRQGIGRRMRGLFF
UniProt P31146: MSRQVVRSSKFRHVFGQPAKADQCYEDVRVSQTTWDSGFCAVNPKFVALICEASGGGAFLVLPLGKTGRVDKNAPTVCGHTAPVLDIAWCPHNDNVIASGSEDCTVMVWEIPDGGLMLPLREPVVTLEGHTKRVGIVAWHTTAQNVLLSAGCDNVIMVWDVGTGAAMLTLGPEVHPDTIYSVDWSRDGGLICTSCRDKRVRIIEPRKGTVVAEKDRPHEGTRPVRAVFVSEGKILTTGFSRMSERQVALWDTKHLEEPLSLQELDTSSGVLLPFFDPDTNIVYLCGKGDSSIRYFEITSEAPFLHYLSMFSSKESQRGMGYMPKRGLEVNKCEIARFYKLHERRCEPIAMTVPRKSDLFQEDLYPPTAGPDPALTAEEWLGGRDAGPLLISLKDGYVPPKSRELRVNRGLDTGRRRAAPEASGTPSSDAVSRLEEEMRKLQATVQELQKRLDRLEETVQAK
UniProt P62633: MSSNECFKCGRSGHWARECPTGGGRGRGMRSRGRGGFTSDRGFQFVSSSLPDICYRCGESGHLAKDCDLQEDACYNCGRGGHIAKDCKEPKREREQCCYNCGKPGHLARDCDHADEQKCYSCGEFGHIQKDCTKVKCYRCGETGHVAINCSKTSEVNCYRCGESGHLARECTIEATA

Compound: Cc1cc(ccc1-c1ccccc1)C(=O)N1CCCN(CC1)C(=O)CCl [compound 10]
Test: probe-labelled cysteine peptide fold change vs DMSO (competition) (log2 fold change); higher = less target engagement (more negative = stronger competition)
Settings: THP-1, incubation time: 4 h
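Further: competitive profiling in live THP-1 cells: cysteine peptides tagged with an iodoacetamide desthiobiotin (IA-DTB) probe, intensity after compound treatment relative to DMSO-treated cells.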

Row | Target | probe-labelled cysteine peptide fold change (10 µM) | probe-labelled cysteine peptide fold change (50 µM)
1 | COLGALT1_Q8NBJ5_412_GELGCFLSHYNIWK (UniProt Q8NBJ5) | 0.112 | 0.0586
2 | COPG1_Q9Y678_230_SPFAYCMMIR (UniProt Q9Y678) | 0.119 | -0.0435
3 | COMP_P49747_520_VVDKIDVCPENAEVTLTDFR (UniProt P49747) | -0.456 | -0.435
4 | COMT_P21964_207_YLPDTLLLEECGLLRK (UniProt P21964) | 0.000836 | -0.204
5 | COPS7B_Q9H9Q2_240_ECPPHAEQR (UniProt Q9H9Q2) | -0.141 | 0.0612
6 | CNPY2_Q9Y2B0_171_RTDLCDHALHISHDEL (UniProt Q9Y2B0) | 0.0561 | 0.205
7 | CNTRL_Q7Z7A1_639_GQATQAQNECR (UniProt Q7Z7A1) | 0.289 | 0.286
8 | COG5_Q9UP83_284_DTITSVVDGYCATLEENINSALDIK (UniProt Q9UP83) | 0.1 | 0.0388
9 | COPS3_Q9UNS2_149_MQMNTNQLTSIHADLCQLCLLAK (UniProt Q9UNS2) | 0.0827 | -0.189
10 | COPG1_Q9Y678_258_DSPLFDFIESCLR (UniProt Q9Y678) | -0.0848 | -0.171
11 | COPB2_P35606_104_CIAVHPTQPFILTSSDDMLIK (UniProt P35606) | 0.397 | 0.27
12 | COG2_Q14746_358_QCGSQASVK (UniProt Q14746) | -0.0551 | 0.00367
13 | COLGALT1_Q8NBJ5_283_QAEVQMYVCNK (UniProt Q8NBJ5) | 0.265 | 0.751
14 | COPG1_Q9Y678_169_CSFDVVKR (UniProt Q9Y678) | -0.119 | -0.189
15 | COL4A3BP_Q9Y5P4_84_AVITPHDFDECRFDISVNDSVWYLR (UniProt Q9Y5P4) | -0.152 | -0.0783
16 | CNOT6L_Q96LI5_283_HVDGCAIFFK (UniProt Q96LI5) | 0.0588 | 0.271
17 | COASY_Q13057_144_YATSCYSCCPR (UniProt Q13057) | -0.369 | -0.359
18 | COG2_Q14746_415_FREIAGSLEAALTDVLEDAPAESPYCLLASHR (UniProt Q14746) | 0.306 | 0.352
19 | COPG1_Q9Y678_516_CVMDDDNEVR (UniProt Q9Y678) | 0.118 | 0.338
20 | CMTM3_Q96MX0_38_AFLCSLK (UniProt Q96MX0) | -0.91 | -3.05
21 | CNPY3_Q9BT09_104_LIEVTETICKR (UniProt Q9BT09) | 0.0226 | 0.0235

Exported tab-delimited: entries from further up.
Row	Target	probe-labelled cysteine peptide fold change (10 µM)	probe-labelled cysteine peptide fold change (50 µM)
17	COASY_Q13057_144_YATSCYSCCPR (UniProt Q13057)	-0.369	-0.359
18	COG2_Q14746_415_FREIAGSLEAALTDVLEDAPAESPYCLLASHR (UniProt Q14746)	0.306	0.352
19	COPG1_Q9Y678_516_CVMDDDNEVR (UniProt Q9Y678)	0.118	0.338
20	CMTM3_Q96MX0_38_AFLCSLK (UniProt Q96MX0)	-0.91	-3.05

More entries follow:

Row | Target | probe-labelled cysteine peptide fold change (10 µM) | probe-labelled cysteine peptide fold change (50 µM)
22 | CNPY2_Q9Y2B0_86_SEAHLTELLEEICDR (UniProt Q9Y2B0) | -0.396 | 0.301
23 | COMP_P49747_351_WGDACDNCR (UniProt P49747) | -0.495 | 0.0664
24 | CNOT10_Q9H9A5_327_ALQENDNVCAQLSAGSTDPGK (UniProt Q9H9A5) | 0.225 | 0.476
25 | CNTRL_Q7Z7A1_1451_LLAEAESELSCTK (UniProt Q7Z7A1) | 0.0751 | 0.155
26 | CNOT1_A5YKK6_1420_IAMTTCEQIVR (UniProt A5YKK6) | 0.167 | 0.155
27 | CNOT1_A5YKK6_219_CPVVLAPLLYPEK (UniProt A5YKK6) | 0.0635 | -0.221
28 | CNN2_Q99439_175_CASQSGMTAYGTR (UniProt Q99439) | 0.188 | -0.502
29 | CNP_P09543_335_AHITLGCAADVEAVQTGLDLLEILRQEK (UniProt P09543) | -0.205 | -0.657
30 | COPG2_Q9UBF2_387_VVVVQAISALCQK (UniProt Q9UBF2) | 0.201 | 0.374
31 | COPB2_P35606_221+234_TCVQTLEGHAQNVSCASFHPELPIIITGSEDGTVR (UniProt P35606) | -0.0281 | 0.213
32 | COA7_Q96BR5_24_SFLENMEVECNYHCYHEK (UniProt Q96BR5) | -0.00216 | -0.0957
33 | COPB2_P35606_681_CQFGLAQECLHHAQDYGGLLLLATASGNANMVNK (UniProt P35606) | 0.0892 | 0.088
34 | COPG2_Q9UBF2_440+446_EAGLAHLCEFIEDCEHTVLATK (UniProt Q9UBF2) | -0.0252 | -0.112
35 | COPS6_Q7L5N1_266_EAYALCHCLPVLSTDK (UniProt Q7L5N1) | 0.35 | -0.223
36 | COPB1_P53618_102_LLHEMILVCDAYRK (UniProt P53618) | 0.0653 | -0.385
37 | COPA_P53621_380_SGSKFPVFNMSYNPAENAVLLCTR (UniProt P53621) | 0.183 | -0.568
38 | COMP_P49747_371_GDACDDDIDGDR (UniProt P49747) | -1.61 | -0.768
39 | COPG1_Q9Y678_129_ALCQITDSTMLQAIER (UniProt Q9Y678) | -0.0807 | -0.0799
40 | COPS7B_Q9H9Q2_240_ATASSSAQEMEQQLAERECPPHAEQR (UniProt Q9H9Q2) | -0.218 | -0.191
41 | COG5_Q9UP83_366_KRDPVSHICFIEEIVK (UniProt Q9UP83) | 0.0448 | 0.479
42 | COPA_P53621_85_CLFTLLGHLDYIR (UniProt P53621) | -0.0366 | 0.456

Row | Target | probe-labelled cysteine peptide fold change (10 µM) | probe-labelled cysteine peptide fold change (50 µM)
43 | CNOT1_A5YKK6_2359_LFQSVAQCCMGQK (UniProt A5YKK6) | 0.135 | -0.247
44 | COPB1_P53618_248_CIYNLLQSSSPAVKYEAAGTLVTLSSAPTAIK (UniProt P53618) | 0.0928 | 0.0416
45 | COPS4_Q9BT78_255_CQQLAAYGILEK (UniProt Q9BT78) | -0.0014 | 0.0431
46 | COPE_O14579_212_CSPTLLLLNGQAACHMAQGR (UniProt O14579) | 0.0619 | 0.054
47 | CNOT2_Q9NZN8_408_FASPWASSPCRPQDIDFHVPSEYLTNIHIR (UniProt Q9NZN8) | -0.067 | 0.245
48 | COPG1_Q9Y678_44_CAHILTK (UniProt Q9Y678) | -0.0131 | -0.101
49 | COPA_P53621_41_MCTLIDK (UniProt P53621) | 0.118 | 0.772
50 | COPS6_Q7L5N1_264_EAYALCHCLPVLSTDK (UniProt Q7L5N1) | 0.0459 | -0.053
51 | CNPY3_Q9BT09_206_DTSCLAEQWSGKK (UniProt Q9BT09) | -0.173 | 0.0136
52 | COMMD3_Q9UBI1_62_HCHAAAATYILEAGK (UniProt Q9UBI1) | 0.178 | 0.246
53 | COG1_Q8WTW3_318_LCSWFK (UniProt Q8WTW3) | -1.03 | -2.3
54 | CORO1A_P31146_24_ADQCYEDVR (UniProt P31146) | -0.314 | -0.158
55 | CNN2_Q99439_215_CASQVGMTAPGTRR (UniProt Q99439) | -0.353 | -0.955
56 | COIL_P38432_126_AFQLEEGEETEPDCK (UniProt P38432) | 0.0772 | -0.122
57 | COPB2_P35606_681+689_CQFGLAQECLHHAQDYGGLLLLATASGNANMVNK (UniProt P35606) | -0.105 | 0.0226
58 | CNP_P09543_335_AHITLGCAADVEAVQTGLDLLEILR (UniProt P09543) | -0.562 | 0.3
59 | CNOT1_A5YKK6_219_CPVVLAPLLYPEKR (UniProt A5YKK6) | -0.231 | -0.768
60 | CNPY2_Q9Y2B0_28+31_SQDLHCGACR (UniProt Q9Y2B0) | -0.301 | -0.121
61 | CNOT4_O95628_56_IRTDENGLCPACR (UniProt O95628) | 0.0155 | -0.281
62 | COPA_P53621_1169_NPTDAYQLNYDMHNPFDICAASYR (UniProt P53621) | 0.178 | 0.397
63 | COPB1_P53618_623_VLSECSPLMNDIFNK (UniProt P53618) | 0.126 | -0.049

Row | Target | probe-labelled cysteine peptide fold change (10 µM) | probe-labelled cysteine peptide fold change (50 µM)
64 | COQ8B_Q96D53_499_LAGAFLACAHLR (UniProt Q96D53) | -0.105 | -0.96
65 | CNBP_P62633_158_TSEVNCYR (UniProt P62633) | -0.0156 | -0.198
66 | COG8_Q96MW5_595_LEPAGPACPEGGR (UniProt Q96MW5) | -0.172 | 0.233
67 | COG4_Q9H9E3_310_YLQVECDR (UniProt Q9H9E3) | 0.0654 | 0.161
68 | COG3_Q96JB2_349_ELLLGPSIACTVAELTSQNNR (UniProt Q96JB2) | -0.155 | -0.545
69 | COPG2_Q9UBF2_280_NKHEMVIYEAASAIIHLPNCTAR (UniProt Q9UBF2) | -0.131 | 0.256
70 | COPA_P53621_655_FSLALECGNIEIALEAAK (UniProt P53621) | 0.269 | 0.264
71 | COL4A3BP_Q9Y5P4_529_KIPALTENDPETWIVCNFSVDHDSAPLNNR (UniProt Q9Y5P4) | 0.164 | 0.0849
72 | COPA_P53621_453_KVQVPNCDEIFYAGTGNLLLR (UniProt P53621) | -0.249 | 0.0498
73 | CNN2_Q99439_61_DGTILCTLMNK (UniProt Q99439) | 0.264 | 0.000245
74 | COPB1_P53618_102_LLHEMILVCDAYR (UniProt P53618) | 0.132 | 0.0394
75 | COPS4_Q9BT78_70_QLLTDFCTHLPNLPDSTAK (UniProt Q9BT78) | 0.204 | 0.203
76 | COPB1_P53618_8_TAAENVCYTLINVPMDSEPPSEISLK (UniProt P53618) | -0.258 | 0.0608
77 | CNBP_P62633_97_EREQCCYNCGKPGHLAR (UniProt P62633) | -0.212 | -0.744
78 | COPA_P53621_522_LDALCNIHENIR (UniProt P53621) | -0.0242 | 0.218
79 | CNOT8_Q9UFF9_148_HEEEGIDTLHFAELLMTSGVVLCDNVK (UniProt Q9UFF9) | 0.46 | 0.659
80 | CORO1A_P31146_345_CEPIAMTVPR (UniProt P31146) | -0.052 | -0.141
81 | CNOT1_A5YKK6_1687_YRECHLLVLK (UniProt A5YKK6) | 0.18 | 0.198
82 | CNOT4_O95628_56_TDENGLCPACR (UniProt O95628) | 0.168 | 0.246
83 | CNOT1_A5YKK6_50_CLFSHVDFSGDGK (UniProt A5YKK6) | 0.349 | -0.157
